Two substances from article PMC8946217 can be followed below.

The chains behind the UniProt entries cited, without tags or fusion partners.
UniProt Q04759: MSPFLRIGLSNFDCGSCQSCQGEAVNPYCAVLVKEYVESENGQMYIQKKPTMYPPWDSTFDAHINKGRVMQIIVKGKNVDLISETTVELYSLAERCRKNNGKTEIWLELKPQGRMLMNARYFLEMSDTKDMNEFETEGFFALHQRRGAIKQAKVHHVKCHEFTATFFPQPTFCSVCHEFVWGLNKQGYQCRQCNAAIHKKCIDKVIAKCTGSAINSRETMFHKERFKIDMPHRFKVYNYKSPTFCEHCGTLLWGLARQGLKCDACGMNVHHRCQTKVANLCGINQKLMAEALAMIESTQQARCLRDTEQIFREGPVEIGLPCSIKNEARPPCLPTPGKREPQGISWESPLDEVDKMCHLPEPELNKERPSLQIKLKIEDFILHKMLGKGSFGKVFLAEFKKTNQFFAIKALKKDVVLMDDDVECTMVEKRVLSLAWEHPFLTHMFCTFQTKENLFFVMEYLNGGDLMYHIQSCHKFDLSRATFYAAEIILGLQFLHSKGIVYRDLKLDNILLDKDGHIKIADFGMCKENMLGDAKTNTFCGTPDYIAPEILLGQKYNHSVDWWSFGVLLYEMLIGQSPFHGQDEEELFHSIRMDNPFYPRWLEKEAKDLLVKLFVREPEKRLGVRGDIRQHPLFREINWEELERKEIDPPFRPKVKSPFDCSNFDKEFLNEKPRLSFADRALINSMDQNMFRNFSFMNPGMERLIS

No constants are given. Whether binding was seen depends on the method and setting. For part of these data: In cells and extracts the contact can be indirect. Some binding calls cover weakened binding; strength is not graded here.

In assay [1] the target is T1, ZEB1, endogenous in CD8+ T cells (human (endogenous in patients' CD8+ T cells)) (UniProt P37275).
T1 sequence: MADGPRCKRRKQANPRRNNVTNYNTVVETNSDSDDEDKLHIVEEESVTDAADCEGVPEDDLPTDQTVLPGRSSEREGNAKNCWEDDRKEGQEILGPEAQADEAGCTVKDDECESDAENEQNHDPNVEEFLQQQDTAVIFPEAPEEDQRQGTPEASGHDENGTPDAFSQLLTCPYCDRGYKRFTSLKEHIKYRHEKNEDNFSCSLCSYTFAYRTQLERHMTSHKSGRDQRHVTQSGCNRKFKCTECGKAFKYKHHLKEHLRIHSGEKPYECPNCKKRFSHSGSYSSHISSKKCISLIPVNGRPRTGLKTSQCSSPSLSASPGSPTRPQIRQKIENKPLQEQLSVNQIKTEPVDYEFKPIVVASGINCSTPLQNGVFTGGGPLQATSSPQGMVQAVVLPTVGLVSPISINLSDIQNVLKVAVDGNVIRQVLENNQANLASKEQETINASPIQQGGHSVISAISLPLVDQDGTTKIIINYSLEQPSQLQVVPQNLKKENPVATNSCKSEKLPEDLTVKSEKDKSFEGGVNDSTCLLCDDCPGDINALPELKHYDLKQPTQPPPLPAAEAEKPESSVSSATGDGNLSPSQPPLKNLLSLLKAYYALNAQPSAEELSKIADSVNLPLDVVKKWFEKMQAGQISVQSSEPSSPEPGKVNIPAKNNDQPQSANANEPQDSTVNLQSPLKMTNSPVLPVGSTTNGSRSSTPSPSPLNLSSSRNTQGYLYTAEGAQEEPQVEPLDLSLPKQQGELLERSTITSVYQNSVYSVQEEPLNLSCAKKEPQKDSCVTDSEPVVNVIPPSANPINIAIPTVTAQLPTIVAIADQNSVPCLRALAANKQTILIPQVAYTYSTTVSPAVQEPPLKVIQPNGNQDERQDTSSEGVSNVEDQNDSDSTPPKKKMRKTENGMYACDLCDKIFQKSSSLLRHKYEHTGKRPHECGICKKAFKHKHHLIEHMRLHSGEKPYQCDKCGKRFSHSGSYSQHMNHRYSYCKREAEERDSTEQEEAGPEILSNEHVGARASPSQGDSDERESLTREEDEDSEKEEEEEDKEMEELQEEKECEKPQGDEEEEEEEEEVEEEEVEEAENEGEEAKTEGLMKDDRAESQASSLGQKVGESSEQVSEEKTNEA
Kind of assay: proximity ligation; Duolink PLA (anti-mouse PLUS, anti-rabbit MINUS probes) with primary antibodies to PKC-θ-Thr538p and ZEB1; fixed, permeabilised PD-1+/CD8+ T cells from immunotherapy-resistant melanoma patients.

Assay [2] concerns the target T1, ZEB1, endogenous in CD8+ T cells (human (endogenous in patients' CD8+ T cells)). Kind of assay: condition: only in PD-1+/CD8+ T cells of immunotherapy-responsive patients; proximity ligation; Duolink PLA (anti-mouse PLUS, anti-rabbit MINUS probes) with primary antibodies to PKC-θ-Thr538p and ZEB1; fixed, permeabilised PD-1+/CD8+ T cells from immunotherapy-responsive melanoma patients.

Assay [3] deals with His6-PKC-θ (protein kinase C theta) (human) (UniProt Q04759). As to the kind of experiment: AlphaScreen or HTRF; about 30 nM His6-PKC-θ and increasing concentrations of biotinylated GST-importins; in triplicate; three parameter sigmoidal curves fitted; quenched values in the hooking zone excluded; both purified.

In the case of “PKC-θ phosphorylated at threonine 538, endogenous in CD8+ T cells (from UniProt Q04759 1-706) (enzyme)”, the binding result is “binds” in assay [1] and “no binding” in assay [2]. “biotinylated GST-importin β1 (from UniProt P70168 1-876)”: the binding result in assay [3] is reported as “binds weakly”.
